The values below come from PMC12700551.

Chains of the proteins cited; added tags and fusions are not shown. Residues count along the entry.
UniProt Q13586, residues 23-685: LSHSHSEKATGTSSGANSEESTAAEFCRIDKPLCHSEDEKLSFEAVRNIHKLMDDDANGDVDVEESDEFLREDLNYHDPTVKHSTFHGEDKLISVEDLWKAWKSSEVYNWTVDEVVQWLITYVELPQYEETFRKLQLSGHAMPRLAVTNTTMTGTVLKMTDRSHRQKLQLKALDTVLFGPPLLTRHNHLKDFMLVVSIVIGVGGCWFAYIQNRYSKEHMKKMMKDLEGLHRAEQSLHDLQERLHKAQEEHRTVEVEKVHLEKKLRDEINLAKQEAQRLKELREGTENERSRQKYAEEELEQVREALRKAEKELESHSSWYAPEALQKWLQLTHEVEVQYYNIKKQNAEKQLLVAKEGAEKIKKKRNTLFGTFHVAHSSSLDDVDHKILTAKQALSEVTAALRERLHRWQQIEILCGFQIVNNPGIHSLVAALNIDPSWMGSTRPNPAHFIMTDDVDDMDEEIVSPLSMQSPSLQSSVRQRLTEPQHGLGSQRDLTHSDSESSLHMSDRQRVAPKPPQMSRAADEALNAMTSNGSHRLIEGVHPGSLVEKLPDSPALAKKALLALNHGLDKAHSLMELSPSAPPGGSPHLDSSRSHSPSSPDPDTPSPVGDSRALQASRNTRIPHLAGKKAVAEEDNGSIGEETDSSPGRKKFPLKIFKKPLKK
UniProt P70302, residues 23-685: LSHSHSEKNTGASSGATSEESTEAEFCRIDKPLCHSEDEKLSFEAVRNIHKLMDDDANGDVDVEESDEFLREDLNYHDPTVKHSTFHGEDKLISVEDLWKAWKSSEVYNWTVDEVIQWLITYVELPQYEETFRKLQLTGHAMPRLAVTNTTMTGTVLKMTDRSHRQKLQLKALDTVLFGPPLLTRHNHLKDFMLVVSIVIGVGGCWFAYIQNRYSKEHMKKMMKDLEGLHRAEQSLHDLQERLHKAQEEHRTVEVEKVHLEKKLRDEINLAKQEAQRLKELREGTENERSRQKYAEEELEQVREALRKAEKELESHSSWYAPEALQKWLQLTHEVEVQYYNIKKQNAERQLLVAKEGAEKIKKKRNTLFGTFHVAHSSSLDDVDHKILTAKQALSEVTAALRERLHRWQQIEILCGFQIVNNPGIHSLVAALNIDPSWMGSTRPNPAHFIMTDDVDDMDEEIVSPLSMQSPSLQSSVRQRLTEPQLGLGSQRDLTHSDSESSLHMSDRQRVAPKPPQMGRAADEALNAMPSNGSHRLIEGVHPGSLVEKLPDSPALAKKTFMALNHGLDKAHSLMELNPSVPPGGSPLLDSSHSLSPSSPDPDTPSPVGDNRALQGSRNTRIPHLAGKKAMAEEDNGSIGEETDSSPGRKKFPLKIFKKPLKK

These are yes or no findings as the source states them, for the method shown. Binding seen in cells or lysates may run through a third protein. Some entries that bind do so weakly or less than the wild type.

Experiment [1] has as its target STIM1 in human AML cell lines (human (in THP-1, U937 and MOLM-13 cells)) (UniProt Q13586). Description: co-IP; co-immunoprecipitation in THP-1, U937 and MOLM-13 cells (Supplemental Figure 11A); bait not stated.
The next experiment has as its target STIM1 (UniProt P70302). Description: co-IP; co-immunoprecipitation of ASIC3 (whole, N-terminal, C-terminal) with STIM1; cells, tags and bait not stated in the main text (Supplemental Figure 8, A and B).

B1: ASIC3 in human AML cell lines (protein, UniProt Q9UHC3 1-531)
chain: MKPTSGPEEARRPASDIRVFASNCSMHGLGHVFGPGSLSLRRGMWAAAVVLSVATFLYQVAERVRYYREFHHQTALDERESHRLIFPAVTLCNINPLRRSRLTPNDLHWAGSALLGLDPAEHAAFLRALGRPPAPPGFMPSPTFDMAQLYARAGHSLDDMLLDCRFRGQPCGPENFTTIFTRMGKCYTFNSGADGAELLTTTRGGMGNGLDIMLDVQQEEYLPVWRDNEETPFEVGIRVQIHSQEEPPIIDQLGLGVSPGYQTFVSCQQQQLSFLPPPWGDCSSASLNPNYEPEPSDPLGSPSPSPSPPYTLMGCRLACETRYVARKCGCRMVYMPGDVPVCSPQQYKNCAHPAIDAMLRKDSCACPNPCASTRYAKELSMVRIPSRAAARFLARKLNRSEAYIAENVLALDIFFEALNYETVEQKKAYEMSELLGDIGGQMGLFIGASLLTILEILDYLCEVFRDKVLGYFWNRQHSQRHSSTNLLQEGLGSHRTQVPHLSLGPRPPTPPCAVTKTLSASHRTCYLVTQL
As for B1, the binding result in experiment [1] is reported as “binds”.

B2: acid-sensing ion channel 3 (ASIC3) (protein, UniProt Q6X1Y6 1-530)
chain: MKPPSGLEEAQRRQASDIRVFANSCTMHGLGHIFGPGGLTLRRGLWATAVLLSLAAFLYQVAERVRYYGEFHHKTTLDERESHQLTFPAVTLCNINPLRRSRLTPNDLHWAGTALLGLDPAEHAAYLRALGQPPAPPGFMPSPTFDMAQLYARAGHSLEDMLLDCRYRGQPCGPENFTVIFTRMGQCYTFNSGAQGAELLTTPKGGAGNGLEIMLDVQQEEYLPIWKDMEETPFEVGIRVQIHGQEEPPAIDQLGFGAAPGHQTFVSCQQQQLSFLPPPWGDCNTASVDPDFDPEPSDPLGSPSSSPPYSLIGCRLACESRYVARKCGCRMMHMPGNSPVCSPQQYKDCASPALDAMLRKDTCVCPNPCATTRYAKELSMVRIPSRASARYLARKYNRSETYITENVLVLDIFFEALNYEAVEQKAAYEVSELLGDIGGQMGLFIGASLLTILEILDYLCEVFQDRVLGYFWNRRSSQRRSGNTLLQEELNGHRTHVPHLSLGPRPPTAPSAVTKTLAASHRTCYLVTRL
As for B2, the binding entry with STIM1 is listed as “binds”.
